No constants are given. Whether binding was seen depends on the method and setting. Some entries that bind do so weakly or less than the wild type.
Biological target: chicken connexin 26 (GgCx26) gap junction channel (chicken (Gallus gallus)) (UniProt E1C2J9)
Experiment: cryo-EM structure; GgCx26 in 0.03% DDM, 90 mmHg PCO2 aCSF buffer gassed with 15% CO2 to pH ~7.4, 3.4 mg/ml; reconstructions with D6 and C6 symmetry; both purified

chicken connexin 26 (GgCx26) gap junction channel (from UniProt E1C2J9 1-225)
binding: binds

From PMC11870076
